5 molecules from doi:10.1101/2023.03.23.534032 can be followed below.

Amino acid sequences for entries named in this document (tags omitted). Residues count along the entry.
UniProt P52948, residues 1-499: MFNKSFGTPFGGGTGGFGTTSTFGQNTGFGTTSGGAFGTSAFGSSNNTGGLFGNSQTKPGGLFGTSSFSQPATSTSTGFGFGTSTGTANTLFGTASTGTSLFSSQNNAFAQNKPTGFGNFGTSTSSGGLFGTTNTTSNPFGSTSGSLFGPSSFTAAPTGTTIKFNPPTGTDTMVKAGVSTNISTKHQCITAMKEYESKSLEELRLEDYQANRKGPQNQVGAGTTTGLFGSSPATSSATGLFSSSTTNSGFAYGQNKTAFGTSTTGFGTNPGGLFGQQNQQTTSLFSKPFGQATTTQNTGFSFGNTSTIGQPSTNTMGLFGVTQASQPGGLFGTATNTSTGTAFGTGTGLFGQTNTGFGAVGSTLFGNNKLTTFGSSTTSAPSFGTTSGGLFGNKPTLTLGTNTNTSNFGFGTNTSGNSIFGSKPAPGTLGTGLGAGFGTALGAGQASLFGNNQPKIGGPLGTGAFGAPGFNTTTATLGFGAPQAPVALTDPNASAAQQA
UniProt P35658, residues 1210-2090: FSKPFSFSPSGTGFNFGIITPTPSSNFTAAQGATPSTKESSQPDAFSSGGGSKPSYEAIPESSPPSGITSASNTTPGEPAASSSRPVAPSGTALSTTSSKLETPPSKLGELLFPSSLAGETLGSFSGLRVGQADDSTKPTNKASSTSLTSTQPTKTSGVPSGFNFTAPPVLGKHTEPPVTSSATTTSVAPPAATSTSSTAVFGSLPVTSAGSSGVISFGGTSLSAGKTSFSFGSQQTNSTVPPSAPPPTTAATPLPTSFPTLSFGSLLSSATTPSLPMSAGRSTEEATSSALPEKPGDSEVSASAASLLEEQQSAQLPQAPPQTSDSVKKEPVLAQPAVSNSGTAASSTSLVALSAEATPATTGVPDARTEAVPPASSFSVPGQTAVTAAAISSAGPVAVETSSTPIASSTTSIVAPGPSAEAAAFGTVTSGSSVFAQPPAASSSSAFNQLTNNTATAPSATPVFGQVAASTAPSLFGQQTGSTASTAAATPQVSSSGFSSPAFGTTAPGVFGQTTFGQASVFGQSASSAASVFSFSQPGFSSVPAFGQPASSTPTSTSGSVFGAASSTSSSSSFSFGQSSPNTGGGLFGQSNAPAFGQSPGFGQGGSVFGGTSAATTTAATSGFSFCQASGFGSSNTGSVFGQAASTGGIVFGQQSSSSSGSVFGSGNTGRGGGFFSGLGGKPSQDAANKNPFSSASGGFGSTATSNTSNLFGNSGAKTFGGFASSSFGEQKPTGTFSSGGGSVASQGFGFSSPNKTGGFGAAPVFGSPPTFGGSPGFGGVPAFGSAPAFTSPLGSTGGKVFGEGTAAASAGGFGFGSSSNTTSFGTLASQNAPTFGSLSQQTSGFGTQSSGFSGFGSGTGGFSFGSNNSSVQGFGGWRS
UniProt Q96HA1: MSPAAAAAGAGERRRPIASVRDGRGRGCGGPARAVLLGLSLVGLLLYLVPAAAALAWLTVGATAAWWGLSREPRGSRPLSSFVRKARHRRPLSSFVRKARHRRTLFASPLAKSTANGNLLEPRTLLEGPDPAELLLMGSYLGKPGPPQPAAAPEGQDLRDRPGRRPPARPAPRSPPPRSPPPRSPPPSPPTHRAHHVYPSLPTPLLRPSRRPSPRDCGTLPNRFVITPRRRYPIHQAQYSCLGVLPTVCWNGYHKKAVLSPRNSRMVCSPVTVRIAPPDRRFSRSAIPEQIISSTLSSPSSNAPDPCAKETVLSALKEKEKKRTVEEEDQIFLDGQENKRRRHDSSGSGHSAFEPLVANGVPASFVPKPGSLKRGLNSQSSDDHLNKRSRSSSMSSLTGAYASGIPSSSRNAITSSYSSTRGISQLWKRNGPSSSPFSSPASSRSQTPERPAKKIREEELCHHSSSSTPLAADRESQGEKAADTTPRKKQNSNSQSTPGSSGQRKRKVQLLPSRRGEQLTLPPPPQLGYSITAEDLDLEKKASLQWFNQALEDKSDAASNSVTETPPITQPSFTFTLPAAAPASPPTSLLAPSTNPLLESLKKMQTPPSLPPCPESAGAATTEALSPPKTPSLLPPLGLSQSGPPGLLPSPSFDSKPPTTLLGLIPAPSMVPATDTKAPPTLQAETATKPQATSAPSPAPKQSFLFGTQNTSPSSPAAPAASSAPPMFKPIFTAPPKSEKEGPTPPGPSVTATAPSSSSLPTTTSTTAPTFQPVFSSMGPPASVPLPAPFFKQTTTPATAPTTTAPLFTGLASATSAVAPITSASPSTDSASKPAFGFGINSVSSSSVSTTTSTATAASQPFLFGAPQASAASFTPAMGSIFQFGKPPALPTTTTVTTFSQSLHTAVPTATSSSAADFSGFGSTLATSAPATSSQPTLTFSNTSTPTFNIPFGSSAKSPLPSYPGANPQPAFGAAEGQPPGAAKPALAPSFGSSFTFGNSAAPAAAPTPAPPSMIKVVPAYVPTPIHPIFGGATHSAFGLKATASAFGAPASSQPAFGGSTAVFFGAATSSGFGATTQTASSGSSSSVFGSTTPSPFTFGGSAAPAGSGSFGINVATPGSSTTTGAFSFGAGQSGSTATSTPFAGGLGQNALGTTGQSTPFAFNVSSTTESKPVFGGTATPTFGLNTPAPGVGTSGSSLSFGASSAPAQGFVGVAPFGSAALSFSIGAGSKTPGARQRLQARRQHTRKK

No constants are given. Whether binding was seen depends on the method and setting. Some entries that bind do so weakly or less than the wild type. For some assays here: Where a sequence is shown, tags or fusion partners need not be part of it.

Holding throughout (assay): fluorescence fluctuation spectroscopy
Assay [1] addresses GFP-Nup98 FG-domain (Nup98 1-499) (human) (UniProt P52948).
Assay [2] addresses GFP-Nup214 FG-domain (Nup214 1210-2090) (human) (UniProt P35658).
A further assay concerns the target GFP-Pom121 (human) (UniProt Q96HA1).
A further assay deals with GFP-Nup42 (human) (UniProt O15504).
For assay [3], the target named is T1, GFP-Nup58 (human), Q9BVL2.
T1 chain: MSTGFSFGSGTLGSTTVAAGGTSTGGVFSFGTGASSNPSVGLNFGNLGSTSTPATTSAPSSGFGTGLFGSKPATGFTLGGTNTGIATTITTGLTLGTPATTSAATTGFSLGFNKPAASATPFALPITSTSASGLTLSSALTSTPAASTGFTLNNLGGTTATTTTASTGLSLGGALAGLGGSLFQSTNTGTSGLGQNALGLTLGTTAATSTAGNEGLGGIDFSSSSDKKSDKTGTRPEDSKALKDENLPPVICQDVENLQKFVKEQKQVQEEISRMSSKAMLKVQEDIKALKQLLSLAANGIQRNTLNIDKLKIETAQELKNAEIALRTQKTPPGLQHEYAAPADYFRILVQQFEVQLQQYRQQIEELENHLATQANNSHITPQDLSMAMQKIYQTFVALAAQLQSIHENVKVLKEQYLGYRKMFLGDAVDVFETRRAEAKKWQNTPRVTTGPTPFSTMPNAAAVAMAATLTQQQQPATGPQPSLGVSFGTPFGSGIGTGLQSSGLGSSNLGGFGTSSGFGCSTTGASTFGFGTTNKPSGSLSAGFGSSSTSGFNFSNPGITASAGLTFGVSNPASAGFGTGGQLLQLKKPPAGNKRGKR
As to conditions: remark: other sources report otherwise.

As for “GFP-Nup98 FG-domain (Nup98 1-499) (from UniProt P52948 1-499) (domain or fragment)”, the binding result in assay [1] is on record as “binds”.
On to “GFP-Nup214 FG-domain (Nup214 1210-2090) (from UniProt P35658 1210-2090) (domain or fragment)”, for which, in assay [2], the binding result is recorded as “no binding”.
As to GFP-Pom121 (from UniProt Q96HA1 1-1249), the binding result with GFP-Pom121 (human) is reported as “no binding”.

B1: GFP-Nup42 (protein, UniProt O15504 1-423)
chain: MAICQFFLQGRCRFGDRCWNEHPGARGAGGGRQQPQQQPSGNNRRGWNTTSQRYSNVIQPSSFSKSTPWGGSRDQEKPYFSSFDSGASTNRKEGFGLSENPFASLSPDEQKDEKKLLEGIVKDMEVWESSGQWMFSVYSPVKKKPNISGFTDISPEELRLEYHNFLTSNNLQSYLNSVQRLINQWRNRVNELKSLNISTKVALLSDVKDGVNQAAPAFGFGSSQAATFMSPGFPVNNSSSDNAQNFSFKTNSGFAAASSGSPAGFGSSPAFGAAASTSSGISTSAPAFGFGKPEVTSAASFSFKSPAASSFGSPGFSGLPASLATGPVRAPVAPAFGGGSSVAGFGSPGSHSHTAFSKPSSDTFGNSSISTSLSASSSIIATDNVLFTPRDKLTVEELEQFQSKKFTLGKIPLKPPPLELLNV
As to B1, in the assay with GFP-Nup42 (human), the binding result is on record as “binds”.

B2: GFP-Nup58, Q9BVL2 1-599 (protein)
chain: T1 chain
Consider B2, for which, in assay [3], the binding entry was “no binding”.
